What was measured:
[1] = test system: HLA-A*24-positive lung cancer (NSCLC) samples; assay: Relative LC-MS quantitation of HLA-A*24 peptide presentation on tumors vs normal tissues; design: species or system human; conditions: HLA-A*24 peptides; over-presented on >5% of measured tumor samples, or presented on >5% with ratio of geometric means tumor vs normal >3
[2] = test system: HLA-A*02-positive lung cancer (NSCLC) samples; assay: Relative LC-MS quantitation of HLA-A*02 peptide presentation on tumors vs normal tissues; design: species or system human; key to Peptide Presentation (presentation score): very highly over-presented on tumors compared to a panel of normal tissues (+++); highly over-presented on tumors compared to a panel of normal (healthy) tissues (++); over-presented on tumors compared to a panel of normal tissues (+); conditions: for Peptide Presentation (presentation score) / Additional Entities (additional tumor types showing over-presentation) / Other relevant organs/diseases (additional tumour types on which the peptide was found): HLA-A*02 peptides; for Peptide Presentation (presentation score): tumors compared to a panel of normal tissues; for Additional Entities (additional tumor types showing over-presentation): amendment of Table 9, >5% of measured tumor samples or ratio of geometric means tumor vs normal >3; for Other relevant organs/diseases (additional tumour types on which the peptide was found): over-presented on >5% of measured tumour samples, or presented on >5% with ratio of geometric means tumour vs normal >3

Substance	Peptide Presentation (presentation score) [2]	Other relevant organs/diseases (additional tumour types on which the peptide was found) [2]	further results
62: peptide found in AIFM2 (gene looked up) (AYKPGALTF; listed as Homo sapiens) [compound 62]			Other relevant organs/diseases (additional tumor types on which the peptide was found) [1]: Liver
60 (SYPAKLSFI; listed as Homo sapiens) [compound 60]			Other relevant organs/diseases (additional tumor types on which the peptide was found) [1]: Liver
FLIPYAIML (listed as Homo sapiens) [SEQ ID No. 2]	+++		
CSNK2A2-001 (VLSSGLTAA; listed as Homo sapiens)	+		
DKC-001 (ALFQRPPLI; listed as Homo sapiens)	+		
99 (ALFQRPPLI; listed as Homo sapiens) [compound 99]		Colon, Rectum, Liver, Ovary	Additional Entities (additional tumor types showing over-presentation) [2]: SCLC, CLL, Esophageal Cancer, Urinary bladder cancer, Gallbladder Cancer, Bile Duct Cancer, NHL
4 (FVFSFPVSV; listed as Homo sapiens) [compound 4]		Stomach, Pancreas, Breast, Melanoma, Ovary	cell lines, normal tissues and cancer tissues where the peptide has been detected ([2]; FIG. 1E legend, A*02): 5 pancreatic cell lines, 3 skins, 15 normal tissues (2 esophagi, 7 lungs, 3 spleens, 3 stomachs), 126 cancer tissues; Additional Entities (additional tumor types showing over-presentation) [2]: SCLC, Esophageal Cancer, Urinary bladder cancer, Gallbladder Cancer, Bile Duct Cancer, NHL
7 (NLLQVLEKV; listed as Homo sapiens) [compound 7]		Kidney, Colon, Rectum, Liver, Breast	Additional Entities (additional tumor types showing over-presentation) [2]: SCLC, OC, Urinary bladder cancer, Uterine Cancer, Gallbladder Cancer, Bile Duct Cancer
1 (KLLPYIVGV; listed as Homo sapiens) [compound 1]		Pancreas, Breast	Additional Entities (additional tumor types showing over-presentation) [2]: SCLC, CRC, Melanoma, Esophageal Cancer, Gallbladder Cancer, Bile Duct Cancer
16 (LIFDLGGGTFDV; listed as Homo sapiens) [compound 16]		Brain, Liver, Prostate, Breast, Melanoma, Ovary	
121 (RLLDSVSRL; listed as Homo sapiens) [compound 121]		Kidney, Colon, Rectum, Liver, Pancreas, Ovary	
126 (KLLTEVHAA; listed as Homo sapiens) [compound 126]		Kidney, Stomach, Colon, Rectum, Liver, Pancreas, Breast, Ovary	
MAGEF1-001 (ILFPDIIARA; listed as Homo sapiens)	+		
TNC-001 (AMTQLLAGV; listed as Homo sapiens)	+		
132 (ALFVRLLALA; listed as Homo sapiens) [compound 132]		Kidney, Brain, Stomach, Colon, Rectum, Liver, Pancreas, Melanoma, Ovary, Esophagus	
3 (FLYDVVKSL; listed as Homo sapiens) [compound 3]		Pancreas, Breast	Additional Entities (additional tumor types showing over-presentation) [2]: SCLC, CRC, Gallbladder Cancer, Bile Duct Cancer
COL6A3-010 (KLLPYIVGV; listed as Homo sapiens)	+++		
94 (ILVDWLVQV; listed as Homo sapiens) [compound 94]		Kidney, Brain, Stomach, Colon, Rectum, Liver, Melanoma, Ovary	Additional Entities (additional tumor types showing over-presentation) [2]: SCLC, BRCA, Esophageal Cancer, Urinary bladder cancer, Uterine Cancer, Gallbladder Cancer, Bile Duct Cancer, AML, NHL
KIF26B-001 (TVAEVIQSV; listed as Homo sapiens)	+		
ALTSTLISV (listed as Homo sapiens) [SEQ ID No. 5]	++		

Substance	Peptide Presentation (presentation score) [2]	Other relevant organs/diseases (additional tumour types on which the peptide was found) [2]	further results
IVDDITYNV (listed as Homo sapiens) [SEQ ID No. 119]	++		
SMYD3-001 (SLIEDLILL; listed as Homo sapiens)	++		
DONSON-001 (VLYPHEPTAV; listed as Homo sapiens)	++		
101 (LLLEILHEI; listed as Homo sapiens) [compound 101]		Kidney, Liver, Pancreas, Breast, Ovary	Additional Entities (additional tumor types showing over-presentation) [2]: SCLC, CLL, Urinary bladder cancer
TMEM43-001 (KLLSDPNYGV; listed as Homo sapiens)	+		
RLASYLDKV (listed as Homo sapiens) [SEQ ID No. 133]	+		
137 (FLVDGSWSV; listed as Homo sapiens) [compound 137]		Stomach, Colon, Rectum, Pancreas, Ovary, Esophagus	
PLT-001 (ALFGALFLA; listed as Homo sapiens)	+		
10 (KMAGIGIREA; listed as Homo sapiens) [compound 10]		Prostate, Ovary	Additional Entities (additional tumor types showing over-presentation) [2]: Urinary bladder cancer
RLDDLKMTV (listed as Homo sapiens) [SEQ ID No. 125]	++		
107 (ALSERAVAV; listed as Homo sapiens) [compound 107]			Additional Entities (additional tumor types showing over-presentation) [2]: Esophageal Cancer, Uterine Cancer
129 (GLIEIISNA; listed as Homo sapiens) [compound 129]		Brain, Colon, Rectum, Liver, Ovary, Esophagus	
ADAM8-001 (KLLTEVHAA; listed as Homo sapiens)	++		
PRKDC-001 (LMTKEISSV; listed as Homo sapiens)	+		
96 (AMGIAPPKV; listed as Homo sapiens) [compound 96]		Colon, Rectum, Liver, Pancreas, Leukocytes	Additional Entities (additional tumor types showing over-presentation) [2]: SCLC, BRCA, Melanoma, NHL
AIVDKVPSV (listed as Homo sapiens) [SEQ ID No. 143]	+		
DIO2-001 (ALYDSVILL; listed as Homo sapiens)	++		
122 (KLSWDLIYL; listed as Homo sapiens) [compound 122]		Kidney, Colon, Rectum	
CCNB2-001 (ILVDWLVQV; listed as Homo sapiens)	+++		
135 (AIDGNNHEV; listed as Homo sapiens) [compound 135]		Brain, Liver, Pancreas	

Substance	Peptide Presentation (presentation score) [2]	Other relevant organs/diseases (additional tumour types on which the peptide was found) [2]	further results
ALVDHTPYL (listed as Homo sapiens) [SEQ ID No. 136]	+		
COL6A3-003 (NLLDLDYEL; listed as Homo sapiens)	+++		
CERC-001 (KLSWDLIYL; listed as Homo sapiens)	+		
COL12A1-002 (FLVDGSWSV; listed as Homo sapiens)	++		
GBP5-001 (SLLSELQHA; listed as Homo sapiens)	++		
PRPF3-001 (AMGIAPPKV; listed as Homo sapiens)	+		
112 (VLAPLFVYL; listed as Homo sapiens) [compound 112]		Kidney, Pancreas, Breast, Melanoma	
125 (RLDDLKMTV; listed as Homo sapiens) [compound 125]		Colon, Rectum, Pancreas, Ovary, Esophagus	
127 (ILFPDIIARA; listed as Homo sapiens) [compound 127]		Kidney, Brain, Leukocytes, Esophagus	
17 (TLLQEQGTKTV; listed as Homo sapiens) [compound 17]			Additional Entities (additional tumor types showing over-presentation) [2]: SCLC, Esophageal Cancer, Urinary bladder cancer
SNRN P20-001 (GLIEIISNA; listed as Homo sapiens)	+		
151 (AVVEFLTSV; listed as Homo sapiens) [compound 151]		Brain, MCC, Esophagus	
14 (LIQDRVAEV; listed as Homo sapiens) [compound 14]		Kidney	Additional Entities (additional tumor types showing over-presentation) [2]: Esophageal Cancer, Urinary bladder cancer
9 (ALSGTLSGV; listed as Homo sapiens) [compound 9]		Brain, Liver, Leukocytes, Melanoma, Ovary, Esophagus	Additional Entities (additional tumor types showing over-presentation) [2]: CLL, BRCA, Urinary bladder cancer, Uterine Cancer, AML, NHL
ILIDWLVQV (listed as Homo sapiens) [SEQ ID No. 117]	++		
KRT-006 (TLLQEQGTKTV; listed as Homo sapiens)	+		
111 (SLYKGLLSV; listed as Homo sapiens) [compound 111]		Kidney, Brain, Colon, Rectum, Liver, Ovary	
149 (KLVEFDFLGA; listed as Homo sapiens) [compound 149]		Brain, Stomach, Colon, Rectum, Liver, MCC, Ovary, Esophagus	
156 (TVAEVIQSV; listed as Homo sapiens) [compound 156]		Pancreas, Breast, Esophagus	

— patent US10526389B2, “Peptides and combinations of peptides for use in immunotherapy against lung cancer, including NSCLC and other cancers” (Immatics Biotechnologies GmbH, priority 2015, dated 2020)
